These results are taken from patent USRE49339.

The chains behind the UniProt entries cited, without tags or fusion partners. Residues count along the entry.
UniProt P01027, residues 955-1303: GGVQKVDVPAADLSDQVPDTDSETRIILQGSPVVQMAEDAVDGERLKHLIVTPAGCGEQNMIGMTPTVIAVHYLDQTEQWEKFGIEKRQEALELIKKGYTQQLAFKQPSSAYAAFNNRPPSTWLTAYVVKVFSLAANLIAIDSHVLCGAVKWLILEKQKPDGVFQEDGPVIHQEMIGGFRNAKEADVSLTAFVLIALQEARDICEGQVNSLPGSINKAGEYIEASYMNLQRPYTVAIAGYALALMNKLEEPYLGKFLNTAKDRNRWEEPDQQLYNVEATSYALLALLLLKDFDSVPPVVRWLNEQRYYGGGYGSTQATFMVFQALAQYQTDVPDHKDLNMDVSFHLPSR
UniProt P20023, residues 21-148: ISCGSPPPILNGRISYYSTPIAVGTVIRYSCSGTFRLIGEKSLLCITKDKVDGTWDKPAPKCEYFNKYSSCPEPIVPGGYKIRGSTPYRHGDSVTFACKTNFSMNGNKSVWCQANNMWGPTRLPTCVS

The target of the test is Tissue-bound C3 fragments (C3b/iC3b/C3d) in renal glomeruli of factor H deficient (fH-/-) mice (mouse) (UniProt P01027). The test can be described thus: 0.5 mg CR2-Fc injected into an fH-/- mouse, kidney sections stained for mouse IgG after 24 hours.

No constants are given. Whether binding was seen depends on the method and setting. Some binding calls cover weakened binding; strength is not graded here.

For the substance “CR2-Fc, chimeric protein comprised of the iC3b/C3d binding region of human CR2 linked to the Fc region of mouse IgG1 (from UniProt P20023 21-148) (Fc fusion)”, the binding entry is “binds”.
